The assay concerns CD2F1 mice, nontumored, toxicity/survival. Kind of assay: NCI In Vivo Anticancer Drug Screen. Data for tumor model Nontumored Animals (Toxicity Test) in CD2F1 (CDF1) mice.
Where [1] appears, read: dose: 2.0 mg/kg/injection, schedule: Q01DX009 (ip), vehicle: saline.
Where [2] appears, read: dose: 16.0 mg/kg/injection, schedule: Q01DX009 (ip), vehicle: saline.
[3] abbreviates: dose: 16.0 mg/kg/injection, schedule: Q04DX003 (ip), vehicle: saline.
Where [4] appears, read: dose: 10.0 mg/kg/injection, schedule: Q01DX001 (ip), vehicle: saline.
The mark [5] stands for this setting: dose: 1.0 mg/kg/injection, schedule: Q01DX001 (ip), vehicle: DMSO.
[6] abbreviates: dose: 10.0 mg/kg/injection, schedule: Q01DX001 (ip), vehicle: DMSO.
[7] abbreviates: dose: 100.0 mg/kg/injection, schedule: Q01DX001 (ip), vehicle: DMSO.

The structures appear in SMILES notation. Values are animals surviving of animals treated; these mice carried no tumour. Counts of survivors are from the toxicity check (mostly the fifth day) where no day follows; animals may have died later. Schedules are NCI's codes, read here as Q, the interval in days (D) or hours (H), X, the number of doses. Some entries hold several experiments; the values are given in rising order.

For the molecule `Cc1c(N)nc([C@H](CC(N)=O)NC[C@H](N)C(N)=O)nc1C(=O)N[C@H](C(=O)N[C@H](C)[C@@H](O)[C@H](C)C(=O)N[C@H](C(=O)NCCc1nc(-c2nc(C(=O)NCCC[S+](C)C)cs2)cs1)[C@@H](C)O)C(OC1OC(CO)C(O)C(O)C1OC1OC(CO)C(O)C(OC(N)=O)C1O)c1cnc[nH]1` (some centres undefined), the survivor count is recorded as 8 of 8 (dose: 0.5 mg/kg/injection, schedule: Q03HX024 (ip), vehicle: saline); 5 of 8 (dose: 1.0 mg/kg/injection, schedule: Q03HX016 (ip), vehicle: saline); 8 of 8 (dose: 1.0 mg/kg/injection, schedule: Q03HX024 (ip), vehicle: saline); 8 of 8 under setting [1]; 8 of 8 (dose: 2.0 mg/kg/injection, schedule: Q03HX008 (ip), vehicle: saline); 8 of 8 (dose: 2.0 mg/kg/injection, schedule: Q03HX016 (ip), vehicle: saline). Moreover, the survivor count reads like this: (dose: 2.0 mg/kg/injection, schedule: Q03HX024 (ip), vehicle: saline) 7 of 8; (dose: 4.0 mg/kg/injection, schedule: Q01DX009 (ip), vehicle: saline) 4 of 4 and 8 of 8; (dose: 4.0 mg/kg/injection, schedule: Q03HX008 (ip), vehicle: saline) 8 of 8; (dose: 4.0 mg/kg/injection, schedule: Q03HX016 (ip), vehicle: saline) 8 of 8; (dose: 4.0 mg/kg/injection, schedule: Q03HX024 (ip), vehicle: saline) 8 of 8; (dose: 8.0 mg/kg/injection, schedule: Q01DX009 (ip), vehicle: saline) 4 of 4 and 8 of 8. For the same molecule, the survivor count is 8 of 8 (dose: 8.0 mg/kg/injection, schedule: Q03HX008 (ip), vehicle: saline); 7 of 8 (dose: 8.0 mg/kg/injection, schedule: Q03HX016 (ip), vehicle: saline); 6 of 8 (dose: 8.0 mg/kg/injection, schedule: Q03HX024 (ip), vehicle: saline); 8 of 8 (dose: 8.0 mg/kg/injection, schedule: Q04DX003 (ip), vehicle: saline); 8 of 8 (dose: 8.0 mg/kg/injection, schedule: Q08DX002 (ip), vehicle: saline); 8 of 8 (dose: 16.0 mg/kg/injection, schedule: Q01DX001 (ip), vehicle: saline). Besides, the survivor count is 4 of 4 and 8 of 8 under setting [2]; 8 of 8 (dose: 16.0 mg/kg/injection, schedule: Q03HX008 (ip), vehicle: saline); 7 of 8 (dose: 16.0 mg/kg/injection, schedule: Q03HX016 (ip), vehicle: saline); 8 of 8 under setting [3]; 8 of 8 (dose: 16.0 mg/kg/injection, schedule: Q08DX002 (ip), vehicle: saline); 8 of 8 (dose: 32.0 mg/kg/injection, schedule: Q01DX001 (ip), vehicle: saline). Also, the survivor count by setting is: (dose: 32.0 mg/kg/injection, schedule: Q01DX009 (ip), vehicle: saline) 4 of 4 and 8 of 8; (dose: 32.0 mg/kg/injection, schedule: Q03HX008 (ip), vehicle: saline) 7 of 8; (dose: 32.0 mg/kg/injection, schedule: Q04DX003 (ip), vehicle: saline) 8 of 8; (dose: 32.0 mg/kg/injection, schedule: Q08DX002 (ip), vehicle: saline) 8 of 8; (dose: 64.0 mg/kg/injection, schedule: Q01DX001 (ip), vehicle: saline) 8 of 8; (dose: 64.0 mg/kg/injection, schedule: Q04DX003 (ip), vehicle: saline) 8 of 8. The survivor count is listed as 8 of 8 (dose: 64.0 mg/kg/injection, schedule: Q08DX002 (ip), vehicle: saline); 7 of 8 (dose: 128.0 mg/kg/injection, schedule: Q01DX001 (ip), vehicle: saline); 8 of 8 (dose: 128.0 mg/kg/injection, schedule: Q04DX003 (ip), vehicle: saline); 8 of 8 (dose: 128.0 mg/kg/injection, schedule: Q08DX002 (ip), vehicle: saline); 8 of 8 (dose: 256.0 mg/kg/injection, schedule: Q01DX001 (ip), vehicle: saline).

With `OC(C1CO1)C(O)C1CO1` (centres undefined), the survivor count runs as follows: (dose: 1.0 mg/kg/injection, schedule: Q01DX009 (ip), vehicle: saline) 8 of 8; (dose: 1.0 mg/kg/injection, schedule: Q04DX003 (ip), vehicle: saline) 8 of 8; (dose: 1.4 mg/kg/injection, schedule: Q01DX009 (ip), vehicle: saline) 8 of 8; (dose: 1.4 mg/kg/injection, schedule: Q04DX003 (ip), vehicle: saline) 8 of 8; under setting [1], 8 of 8; (dose: 2.0 mg/kg/injection, schedule: Q04DX003 (ip), vehicle: saline) 8 of 8. Moreover, the survivor count (dose: 3.0 mg/kg/injection, schedule: Q01DX009 (ip), vehicle: saline) was 8 of 8; the survivor count (dose: 3.0 mg/kg/injection, schedule: Q04DX003 (ip), vehicle: saline) is recorded as 8 of 8; the survivor count (dose: 4.6 mg/kg/injection, schedule: Q01DX009 (ip), vehicle: saline) is recorded as 8 of 8; the survivor count (dose: 4.6 mg/kg/injection, schedule: Q04DX003 (ip), vehicle: saline) was 8 of 8; the survivor count (dose: 7.0 mg/kg/injection, schedule: Q01DX009 (ip), vehicle: saline) is recorded as 8 of 8; the survivor count (dose: 7.0 mg/kg/injection, schedule: Q04DX003 (ip), vehicle: saline) was 8 of 8. The survivor count is 10 of 10 under setting [4]; 8 of 8 (dose: 10.6 mg/kg/injection, schedule: Q01DX009 (ip), vehicle: saline); 8 of 8 (dose: 10.6 mg/kg/injection, schedule: Q04DX003 (ip), vehicle: saline); 10 of 10 (dose: 12.5 mg/kg/injection, schedule: Q01DX001 (ip), vehicle: saline); 10 of 10 (dose: 15.0 mg/kg/injection, schedule: Q01DX001 (ip), vehicle: saline); 8 of 8 under setting [2]. Moreover, the survivor count under setting [3] is listed as 8 of 8.

In the case of `CCCCC(=O)OCC(=O)[C@]1(O)Cc2c(O)c3c(c(O)c2[C@@H](OC2CC(NC(=O)C(F)(F)F)C(O)C(C)O2)C1)C(=O)c1c(OC)cccc1C3=O` (some centres undefined), the survivor count (dose: 13.0 mg/kg/injection, schedule: Q04DX003 (ip), vehicle: clinical formulation) was 5 of 5; the survivor count (dose: 13.0 mg/kg/injection, schedule: Q10HX004 (ip), vehicle: other) was 5 of 5; the survivor count (dose: 21.6 mg/kg/injection, schedule: Q04DX003 (ip), vehicle: clinical formulation) is given as 5 of 5; the survivor count (dose: 21.6 mg/kg/injection, schedule: Q10HX004 (ip), vehicle: other) was 5 of 5; the survivor count (dose: 36.0 mg/kg/injection, schedule: Q04DX003 (ip), vehicle: clinical formulation) is 5 of 5; the survivor count (dose: 36.0 mg/kg/injection, schedule: Q10HX004 (ip), vehicle: other) is reported as 5 of 5. Further, the survivor count by setting is: (dose: 60.0 mg/kg/injection, schedule: Q04DX003 (ip), vehicle: clinical formulation) 5 of 5; (dose: 60.0 mg/kg/injection, schedule: Q10HX004 (ip), vehicle: other) 5 of 5; (dose: 100.0 mg/kg/injection, schedule: Q04DX003 (ip), vehicle: clinical formulation) 5 of 5; (dose: 100.0 mg/kg/injection, schedule: Q10HX004 (ip), vehicle: other) 5 of 5.

`CC(=O)N(C(C)=O)c1nc(Br)c2ccccc2c1-c1ccc([N+](=O)[O-])cc1`: the survivor count is, setting by setting: under setting [5], 2 of 2; under setting [6], 2 of 2; under setting [7], 2 of 2.

Regarding `CC12CCC(O)CC1CCC1C2CCC2(C)C(c3ccc(=O)oc3)CC3OC312` (centres undefined), the survivor count reads like this: (dose: 1.0 mg/kg/injection, schedule: Q01DX001 (ip), vehicle: saline) 2 of 2; under setting [4], 0 of 2; (dose: 100.0 mg/kg/injection, schedule: Q01DX001 (ip), vehicle: saline) 0 of 2.

Turning to `CN(C)N=Nc1ccc(S(N)(=O)=O)cc1`, the survivor count (dose: 118.0 mg/kg/injection, schedule: Q01DX009 (ip), vehicle: Klucel (hydroxypropylcellulose) (HPC)) is 10 of 10; the survivor count (dose: 177.0 mg/kg/injection, schedule: Q01DX009 (ip), vehicle: Klucel (hydroxypropylcellulose) (HPC)) was 8 of 10; the survivor count (dose: 266.0 mg/kg/injection, schedule: Q01DX009 (ip), vehicle: Klucel (hydroxypropylcellulose) (HPC)) is 5 of 10; the survivor count (dose: 400.0 mg/kg/injection, schedule: Q01DX009 (ip), vehicle: Klucel (hydroxypropylcellulose) (HPC)) is listed as 7 of 10; the survivor count (dose: 600.0 mg/kg/injection, schedule: Q01DX009 (ip), vehicle: Klucel (hydroxypropylcellulose) (HPC)) is listed as 0 of 10.

As for `COc1ccc2c(c1O)-c1cc(O)cc3c1C(C2)N(CCCl)CC3` (centres undefined), the survivor count is, setting by setting: under setting [5], 2 of 2; under setting [6], 2 of 2; under setting [7], 2 of 2.

With `Nc1ncc2ccccc2c1-c1ccc(NC(=O)CCCl)cc1`, the survivor count by setting is: under setting [5], 2 of 2; under setting [6], 2 of 2; under setting [7], 2 of 2.

Regarding `COc1ccc2c(c1OC(C)=O)-c1cc(OC(C)=O)cc3c1C(C2)NCC3` (centres undefined), the survivor count is, setting by setting: (dose: 1.0 mg/kg/injection, schedule: Q01DX001 (ip), vehicle: water) 2 of 2; (dose: 10.0 mg/kg/injection, schedule: Q01DX001 (ip), vehicle: water) 2 of 2; (dose: 100.0 mg/kg/injection, schedule: Q01DX001 (ip), vehicle: water) 0 of 2.

Values taken from PubChem BioAssay AID188 (DTP/NCI, 2004).
